This assay has as its target proTGF-α-mH (human) (UniProt P01135). Nature of the assay: IP of proTGFα-mH.

Sequences of proteins named here, by UniProt entry; tags and fusion partners are left off. A change or cut given only in a name is not applied to a line headed by its entry.
UniProt P01135: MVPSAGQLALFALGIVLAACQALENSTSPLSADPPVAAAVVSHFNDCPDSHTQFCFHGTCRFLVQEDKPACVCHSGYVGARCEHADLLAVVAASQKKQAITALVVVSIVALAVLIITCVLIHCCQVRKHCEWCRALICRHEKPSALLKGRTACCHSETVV

Results are given in words; binding and its absence hold for the method and conditions named. Some results given as binding are weak or reduced against the parent protein; the word gives no strength.

B1: MBL016-8 (antibody, mouse IgG2a, V domains shown)
VH: VQLQQSGAELVRPGASVKLSCTASGFNIKDDYMYWVKQRPEQGLEWIGRIDPANGNTKYAPKFQDKATITADTSSNTAYLHLSSLTSEDTAVFYCAYRRAYWGQGTLVTVSA
VL: DIQMTQSPSSLSASLGGKVTITCKASQDINKYIAWYQHKPGKGPRLFIHYTSKLQPGIPSRFSGSGSGRDYSFSISNLEPEDIATYYCLQYDNLLYTFGGGTKLEIK
As to B1, the binding result is reported as “binds”.

B2: MBL009-15 (antibody, mouse IgG1, V domains shown)
VH: VQLQESGPGLVKPSQSLSLTCTVTGYSITSDYAWNWIRQFPGNKLEWMGYISYSGSTSYNPSLKSRISITRDTSKNQFFLQLNSVTTEDTATYYCARGGITRFAYWGQGTLVTVSA
VL: DIQMTQTTSSLSASLGDRLTISCRASQDIRNYLNWYQQKPDGTVKLLIYYTSRLHSGVPSRFSGSGSGTDYSLTISNLEQEDIATYFCQQGNTLPWTFGGGTKLEIK
On to B2, for which the binding result was “binds”.

B3: MBL018-1 (antibody, mouse IgG1, V domains shown)
VH: EVQLQQSGTVLTRPGASVKMSCKASGYTFTNFWIHWVKQRPGQGLDWIGAIYPGNTNTDYNQKFQGKAKLTAVSSASTAYMELSSLTNEDSAVYYCTRGGAMDYWGQGTSVTVSS
VL: IVMTQTPKLLPVSAGDRVTMTCKASQSVDNSVAWYQQKPGQSPKLLIFYASNHYTGVPDRFTASGSGTDFTFTISSVQVEDLAVYFCQQHFSSPRTFGGGTKLEIR
For the molecule B3, the binding entry is reported as “binds”.

B4: MBL259-3 (antibody, mouse IgG2a, V domains shown)
VH: VQLQQSGAELVRPGASVKLSCTASDFNIKDDYMHWMKQRPEQGLEWIGRIDPANGNTKYAPKFQDKATMTADTSSNTAYLQFSSLTSEDTAVYYCATSWGFPYWGQGTLVTVSA
VL: DIVMTQAAPSVPVTPGESVSISCRSSKSLLHRNGNTYLYWFLQRPGQSPQLLIYRMSNLASGVPDRFSGSGSGTAFTLRISRVEAEDVGVYYCLQHLEYPYTFGSGTKLEIK
With B4, the binding result was “binds”.

B5: MBL144-1 (antibody, mouse IgG1, V domains shown)
VH: VQLQESGPGLAKPSQTLSLTCSVTGYSITSDYWNWIRKFPGNKLEYMGYISYSGSTYYNPSLKSRISITRDTSKNQYYLQLNSVTTEDTATYYCARSYDGICFDNWGQGTTLTVSS
VL: DILMTQSPATLSVTPGETVSLSCRASQNTYKNLHWYQQKSHGTPKLLIKYASAPISGIPSRFTGSGSGTDYTLSINSVKPEDEGIYYCLQGYSMPWTFGGGTKLEIK
As for B5, the binding entry is given as “binds”.

B6: MBL292-1 (antibody, mouse IgG1, V domains shown)
VH: VQLQQSGAELVRPGASVKLSCTASGFNIKDDYMHWMKQRPEQGLEWIGRIDPANGNTKYAPKFQDKATITADTSSNTAYLQLSSLTSEDTAVYYCSRMGLLRGYWGQGTTLTVSS
VL: IQMTQSSSSLSVSLGDRVTITCKASVHINSWLAWYQQKPGNAPRLLISGATNLKTGVPSRFSGSASGKDYTLSITSLQTEDVATYYCQQYWDTPWTFGGGTKLEIK
Take B6: the binding entry was “binds”.

B7: MBL352-34 (antibody, mouse IgG1, V domains shown)
VH: VQLQQSGAELVRPGASVKLSCTASGFNIKDDYMHWVKQRPEQGLEWIGRIDPANGHTKYAPKFQDKATITADTSSNTAYLQFSSLTSEDTAVYYCTRMGLRRGYWGQGTTLTVSS
VL: IQMTQSSSSLSVSLGDRVTITCKASEHINSWLAWYQQKPGNAPRLLISGATNLKTGVPSRFSGSASGKDYTLSITSLQTEDVATYYCQQYWGTPWTFGGGTKLEIK
B7: the binding result is “binds”.

B8: MBL184-6 (antibody, mouse IgG1, V domains shown)
VH: EVQLQQSGAELVRPGASVKLSCTVSGFNIKDDYMHWVKQRPEQGLEWIGRIDPANGHTKYAPKFQDKATITADTSSNTAYLQFSSLTSEDTAVYYCTRMGLRRGYWGQGTTLTVSS
VL: IQMTQSSSSLSVSLGDRVTITCKASEHINSWLAWYQQKPGNAPRLLISGATNLKTGVPSRFSGSASGKDYTLNITSLQTEDVATYYCQQYWGTPWTFGGGTKLEIK
For the molecule B8, the binding result is on record as “binds”.

These data come from patent US20130131322A1.
